Assay results published in PubChem BioAssay.
The inconclusive results got no clear call from the source; some entries with a clear call stand among them for comparison. Potencies beside an inconclusive call are fits to weak or partial responses and may not hold up. The source made the active and inactive calls. Unless noted, the limit is not given here; nearly all actives have AC50 up to about 26 µM.

Columns and labels:
[1] = growth inhibition of DIPG glioma cells, dose response, cell-based, SU-DIPG-XVII, MIPE5.0, CellTiter-Glo, qHTS (AID 1347060); settings: SU-DIPG-XVII viability, CellTiter-Glo ATP luminescence;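 also: cells exposed to compound for 48 hours before viability readout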
[2] = growth inhibition of DIPG glioma cells, dose response, cell-based, SU-DIPG-XIII, MIPE4.0, CellTiter-Glo, qHTS (AID 1347061; cut-off not given, nearly all actives have AC50 up to about 37 µM;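 also: cells exposed to compound for 48 hours before readout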); settings: SU-DIPG-XIII viability, CellTiter-Glo ATP luminescence
[3] = growth inhibition of DIPG glioma cells, dose response, cell-based, SU-DIPG-IV, MIPE4.0, CellTiter-Glo, qHTS (AID 1347063; cut-off not given, nearly all actives have AC50 up to about 30 µM;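 also: compound exposure lasted 48 hours before the viability readout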); settings: SU-DIPG-IV viability, CellTiter-Glo ATP luminescence
[4] = growth inhibition of DIPG glioma cells, dose response, cell-based, SU-DIPG-XIII, MIPE5.0, CellTiter-Glo, qHTS (AID 1347064; cut-off not given, nearly all actives have AC50 up to about 23 µM;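 also: cells exposed to compound for 48 hours before the viability read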); settings: SU-DIPG-XIII viability, CellTiter-Glo ATP luminescence
[5] = viability loss in pontine glioma line – cell-based, SU-DIPG-XXV, MIPE5.0, CellTiter-Glo, qHTS, dose response (AID 1347065); settings: CellTiter-Glo ATP luminescence;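 also: cells exposed to compound for 48 hours before ATP readout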
[6] = SU-DIPG-VI glioma cell viability, MIPE4.0 library, CellTiter-Glo luminescence, qHTS (AID 1347066; cut-off not given, nearly all actives have AC50 up to about 30 µM;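 also: cells exposed to compound for 48 hours before readout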); settings: CellTiter-Glo ATP luminescence
[7] = JHH-DIPG-1 glioma cell viability, MIPE5.0 library, CellTiter-Glo luminescence, qHTS (AID 1347067); settings: JHH-DIPG-1 glioma viability, CellTiter-Glo ATP luminescence;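 also: cells exposed to compound for 48 hours before readout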
[8] = SU-DIPG-XXV glioma cell viability, MIPE5.0 library, qHTS (AID 1347068; cut-off not given, nearly all actives have IC50 up to about 30 µM;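 as to IC50: cells exposed to compound for 48 hours before viability readout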)

COc1ccc(C[C@@H](C)[C@@H](C)Cc2ccc(OC)c(OC)c2)cc1OC
inconclusive: AC50 [1] 18.6 µM [cytotoxic] | AC50 [2] 16.6 µM [cytotoxic] | AC50 [3] 0.166 µM [cytotoxic] | AC50 [4] 37.2 µM [cytotoxic] | AC50 [5] 20.9 µM [cytotoxic] | AC50 [6] 18.7 µM [cytotoxic] | AC50 [7] 20.9 µM [cytotoxic] | IC50 [8] 0.00235 µM [cytotoxic]

CC(=O)NCCC(=O)N[C@@H](CCC(N)=O)C(=O)N[C@@H](CO)C(=O)N[C@@H](CCC(N)=O)C(=O)N[C@@H](CCC(N)=O)C(=O)N[C@H](C(=O)N[C@@H](Cc1ccccc1)C(=O)N[C@]1(C)CCCCCC/C=C\CCC[C@@](C)(C(=O)N[C@@H](CCC(N)=O)C(=O)N[C@@H](CC(N)=O)C(N)=O)NC(=O)[C@H](CC(C)C)NC(=O)[C@H](CC(C)C)NC(=O)[C@@H](CCCNC(=N)N)NC(=O)[C@H](Cc2c[nH]c3ccccc23)NC(=O)[C@H](CC(C)C)NC(=O)[C@H](CC(N)=O)NC1=O)[C@H](C)O
inactive: outcome [5] | outcome [7] | outcome [8]
inconclusive: AC50 [1] 37.2 µM [cytotoxic] | AC50 [2] 20.9 µM [cytotoxic] | AC50 [3] 18.7 µM [cytotoxic] | AC50 [4] 37.2 µM [cytotoxic] | AC50 [6] 16.6 µM [cytotoxic]

O=C1NC(=O)/C(=C/c2ccc(-c3ccc(F)cc3O)o2)S1
inconclusive: AC50 [1] 0.332 µM [cytotoxic] | AC50 [2] 7.43 µM [cytotoxic] | AC50 [3] 1.66 µM [cytotoxic] | AC50 [4] 13.2 µM [cytotoxic] | AC50 [5] 2.09 µM [cytotoxic] | AC50 [6] 0.00235 µM [cytotoxic] | IC50 [8] 33.2 µM
